Assay results as given in PMC5978004.

Target: T1, human Bcl10 (human) (UniProt O95999)
T1 sequence: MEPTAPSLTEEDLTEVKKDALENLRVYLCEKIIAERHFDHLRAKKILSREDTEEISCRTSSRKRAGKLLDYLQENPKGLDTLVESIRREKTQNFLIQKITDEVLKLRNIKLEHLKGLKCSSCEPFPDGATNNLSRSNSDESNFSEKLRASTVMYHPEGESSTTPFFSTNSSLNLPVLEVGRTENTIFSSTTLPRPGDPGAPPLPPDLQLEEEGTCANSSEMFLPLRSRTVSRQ
Test: two-hybrid; Matchmaker Gold Yeast Two-Hybrid System, Y2H Gold strain; bait and prey plasmids co-transformed; growth on SD/-Leu/-Trp/-His/-Ade/+X-α-gal, 30°C, 3–7 days

Nematostella vectensis type 1 paracaspase paralog "A" (NvPCASP-t1A)
binding: no binding

Nematostella vectensis type 1 paracaspase paralog "B" (NvPCASP-t1B)
binding: binds

Results are given in words; binding and its absence hold for the method and conditions named. Binding can be weak; no strength is given.
